Screening data

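A cell-free homogeneous FRET test of compounds that break up the RanGTP-importin-beta complex, measured as the yellow-to-cyan fluorescence ratio after a short room-temperature incubation.
The test concentration is not given here.
Percent inhibition of the FRET ratio, where 0% matches DMSO wells and 100% matches Ran loaded with GDP; a higher value means stronger disruption of the complex.
A compound is called inconclusive when exactly half of its replicate wells pass the activity cutoff, active when more than half pass, and inactive when fewer than half pass.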

Values are in %.
All entries here are filed as inconclusive.
Only part of the assay is shown, chiefly results filed as inconclusive.

| # | structure | inhibition (%) |
|---|---|---|
| 1 | `Cc1ncccc1C(=O)N1CCCC(CNC(=O)C2(c3ccc(Cl)cc3)CC2)C1` (stereo unspecified) | 7.53 |
| 2 | `O=C1CNC(=O)/C(=C/c2cccs2)N1` | 13.92 |
| 3 | `COc1cc2c(cc1OC)CN(C(=O)CSc1nnc3scc(-c4ccccc4)n13)CC2` | 11.72 |
| 4 | `Cc1ccc(C)c(OCCCCN2CCNCC2)c1C` | 9.697 |
| 5 | `CC1(C)CC(=O)C(CC(=O)Nc2cc(C(F)(F)F)ccc2Cl)C(=O)C1` | 14.91 |
| 6 | `CCCn1c(C2CCCN2c2nc(-c3ccc(C)cc3)cs2)nc2cc(Cl)c(N3CCCCC3)cc21` (stereo unspecified) | 5.652 |
| 7 | `COCCN(C(=O)CSc1nnc(-c2ccccc2F)n1C)c1c(N)n(Cc2ccccc2)c(=O)[nH]c1=O` | 14.87 |
| 8 | `Cc1nccn1C[C@@H]1CCc2c(c3ccccc3n2C)C1=O` | 9.259 |
| 9 | `COc1ccc(Cl)cc1C(=O)NCCc1ccc(S(=O)(=O)NC(=O)NC2CCCCC2)cc1` | 21.65 |
| 10 | `O=C(c1ccco1)N1CCN(C(=O)c2cnn3c(C(F)(F)F)cc(-c4cccs4)nc23)CC1` | 12.29 |
| 11 | `CCc1ccc(CCOc2ccc(CC3SC(=O)NC3=O)cc2)nc1` (stereo unspecified) | 9.761 |
| 12 | `Oc1ccc(N2CCN(Cc3ccc(OCCCN4CCCCC4)cc3)CC2)cc1` | 14.25 |
| 13 | `CC(C)Cn1c(CCC(=O)O)ccc1-c1cccs1` | 11.88 |
| 14 | `CCOC(=O)c1sc2nc(CC(=O)OC)nc(N3CCN(c4ccccn4)CC3)c2c1C` | 11.03 |
| 15 | `CCN(CC)C(=O)c1ccc(NC(=S)NC(=O)CCc2ccccc2)cc1` | 15.07 |
| 16 | `O=C(CSc1ccccc1)N1CCC2(CC1)OCCO2` | 3.513 |
| 17 | `CCN(CC)c1ccc(/C=N/NC(=O)CN2CCCc3ccccc32)cc1` | 21.12 |
| 18 | `O=C(Nc1ccc(Cc2ccncc2)cc1)c1ccc(Cl)c([N+](=O)[O-])c1` | 7.958 |
| 19 | `COc1ccc2sc(N(CCN(C)C)C(=O)c3cc(Cl)sc3Cl)nc2c1` | 20.53 |
| 20 | `COc1ccc(OC)c2[nH]c(=O)c(CCNC(=O)c3cccs3)cc12` | 5.209 |
| 21 | `CC1(C)CC(=O)C2=C(C1)NC1=C(C(=O)c3ccccc31)C2c1cccnc1` (stereo unspecified) | 11.09 |
| 22 | `CNC(=O)OCCc1nccn1C` | 12.53 |
| 23 | `COC(=O)Nc1nc2ccc(C(=O)c3ccc(F)cc3)cc2[nH]1` | 19.61 |
| 24 | `NC(=O)C1(N2CCCCC2)CCN(C(=O)c2cccn3c(=O)c4cc(Cl)ccc4nc23)CC1` | 15.28 |
| 25 | `CCNC(=O)CC1C(=O)N(c2ccc(F)cc2)C(=O)N1Cc1ccc(OC)cc1` (stereo unspecified) | 12.34 |
| 26 | `Cc1ccc(C(=O)c2cc3ccccc3o2)cc1[N+](=O)[O-]` | 7.484 |
| 27 | `O=C(Nc1ccc2[nH]ncc2c1)c1cccc(F)c1` | 7.921 |
| 28 | `Cc1ccc(/C=N/NC(=O)c2cc(C3CC3)nc3ccccc23)o1` | 17.26 |
| 29 | `N#Cc1c(Nc2ccc(F)cc2)sc(C(=O)c2ccccc2)c1N` | 13.32 |
| 30 | `Cn1ccnc1-c1nc2ccccc2[nH]c1=O` | 14.88 |
| 31 | `c1ccc(Nc2cccc3c(Nc4ccccc4)cccc23)cc1` | 12.75 |
| 32 | `c1ccc(C[n+]2ccccc2)cc1` | 7.172 |
| 33 | `NC(=NCCCCCCN=C(N)/N=C(\N)Nc1ccc(Cl)cc1)/N=C(\N)Nc1ccc(Cl)cc1` | 13.08 |
| 34 | `Cc1[nH]nc2c1C(c1cccs1)C1=C(CCCC1=O)N2` (stereo unspecified) | 16.25 |
| 35 | `Cc1cc(=O)n(C)c2ccccc12` | 10.21 |
| 36 | `Cc1ccc(S(=O)(=O)N2CCCCC2)cc1NC(=O)COc1ccccc1F` | 10.17 |
| 37 | `C[C@]12CC[C@@H](O)C[C@H]1CC[C@@H]1[C@@H]2CC[C@]2(C)C(=O)CC[C@@H]12` | 10.96 |
| 38 | `CCOC(=O)N1CCN(C(=O)c2cc(Cl)c(Cl)cc2C(=O)O)CC1` | 22.26 |
| 39 | `CC(=O)c1ccc(N(C(=O)c2ccco2)C(C(=O)NC2CCCC2)c2ccc(N3CCOCC3)cc2)cc1` (stereo unspecified) | 7.947 |
| 40 | `Cc1ccc2c(c1)c1c3n2CCNC3CCC1` (stereo unspecified) | 9.233 |
| 41 | `O=C(Nc1ccc(Cl)cc1Cl)N1CCN(c2ncccn2)CC1` | 13.89 |
| 42 | `COCCn1c(Cc2cccn2C)nnc1SCC(=O)NCc1ccc2c(c1)OCO2` | 8.614 |
| 43 | `C=CCNC(=O)c1ccccc1NC(=O)COc1ccc(OC)cc1` | 7.659 |
| 44 | `CC1CN(C(=O)c2cc3c(=O)n4ccccc4nc3s2)CC(C)O1` (stereo unspecified) | 12.1 |
| 45 | `CN1C(=O)c2ccccc2N(C)C1c1ccc2c(c1)OCO2` (stereo unspecified) | 7.257 |
| 46 | `CNC(=O)Oc1ccc2c(c1)[C@]1(C)CCN(C)C1N2C` (stereo partly specified) | 9.696 |
| 47 | `NS(=O)(=O)c1ccc(NC(=O)COC(=O)C2CCCCC2)cc1` | 5.254 |
| 48 | `Cc1ccccc1CS(=O)(=O)CCC(=O)N1CCN(c2ccc(N3CCOCC3)nn2)CC1` | 9.366 |
| 49 | `Cc1c(NC(=O)COC(=O)C23CC4CC(CC(O)(C4)C2)C3)c(=O)n(-c2ccccc2)n1C` | 8.034 |
| 50 | `CNC(=O)CSc1cnc2ccccc2n1` | 13.83 |
| 51 | `Cc1cc(-c2nnc(-c3cc4ccccc4oc3=O)o2)c(C)n1-c1ccccc1` | 10.5 |
| 52 | `CCCCN(C)CC(O)Cn1cc(/C=C/C(=O)c2ccc(C)cc2)c2ccccc21` (stereo unspecified) | 18.79 |
| 53 | `O=C(c1cc(COc2cccc(C(F)(F)F)c2)on1)N1CCC(c2ccccc2)CC1` | 8.16 |
| 54 | `COc1ccc2c(c1OC)C(=O)N1C(C(=O)O)Cc3c([nH]c4ccccc34)C21` (stereo unspecified) | 14.59 |
| 55 | `O=C1CC[C@@]2(O)[C@H]3Cc4ccc(O)c5c4[C@@]2(CCN3CC2CC2)[C@H]1O5` | 7.025 |
| 56 | `OCC1CCCN(C2CCN(Cc3nc(Cc4cccc(C(F)(F)F)c4)no3)CC2)C1` (stereo unspecified) | 12.23 |
| 57 | `O=C(Cc1cccc2ccccc12)NN1C(=O)CSC1=S` | 17.5 |
| 58 | `CCC(C)(C)NC(=O)C(c1cccc(OC)c1OC)N(CC(C)C)C(=O)CCC(=O)Nc1cc(C)on1` (stereo unspecified) | 7.648 |
| 59 | `CCC(C)N(C(=O)COc1ccc(-c2nnco2)cc1)C1CCS(=O)(=O)C1` (stereo unspecified) | 8.714 |
| 60 | `CCN(CC(=O)Nc1ccc(NC(C)=O)cc1)C(=O)c1ccccc1SCc1c(C)noc1C` | 19.59 |
| 61 | `Cc1ccccc1COc1ccc(/C=C(\C#N)C(N)=O)cc1` | 7.81 |
| 62 | `COCc1cc(C)nc(SCc2nc3ccccc3c(=O)[nH]2)c1C#N` | 17.82 |
| 63 | `Cc1cccc(Nc2ccncc2S(=O)(=O)NC(=O)NC(C)C)c1` | 11.68 |
| 64 | `CCc1ccc(NC(=O)CSc2nc3ccsc3c(=O)n2CCCCCC(=O)O)cc1` | 10.44 |
| 65 | `CC(=O)N/N=C(\C)CC(=O)Nc1ccc2c(c1)OCCO2` | 6.685 |
| 66 | `Cc1ccc2[nH]c(=O)c(CN3CCCCC3)c(-c3ccccc3)c2c1` | 7.348 |
| 67 | `CCCCC(CCCCl)C(=O)Nc1ccccc1` (stereo unspecified) | 13.62 |
| 68 | `NC(N)=NC(N)=NCCc1ccccc1` | 9.593 |

7 of the entries, repeated:

* Cc1ccc2c(c1)c1c3n2CCNC3CCC1 (stereo unspecified) : inhibition 9.233%
* O=C(Nc1ccc(Cc2ccncc2)cc1)c1ccc(Cl)c([N+](=O)[O-])c1 : inhibition 7.958%
* COCc1cc(C)nc(SCc2nc3ccccc3c(=O)[nH]2)c1C#N : inhibition 17.82%
* COCCN(C(=O)CSc1nnc(-c2ccccc2F)n1C)c1c(N)n(Cc2ccccc2)c(=O)[nH]c1=O : inhibition 14.87%
* CC1CN(C(=O)c2cc3c(=O)n4ccccc4nc3s2)CC(C)O1 (stereo unspecified) : inhibition 12.1%
* O=C(Nc1ccc(Cl)cc1Cl)N1CCN(c2ncccn2)CC1 : inhibition 13.89%
* CC(=O)c1ccc(N(C(=O)c2ccco2)C(C(=O)NC2CCCC2)c2ccc(N3CCOCC3)cc2)cc1 (stereo unspecified) : inhibition 7.947%

Data taken from PubChem BioAssay AID2216, deposited by Broad Institute (2009).